From the supplement of paper PMC10849652
The other results are listed elsewhere or left out.

Sequences of proteins named here, by UniProt entry; tags and fusion partners are left off. A change or cut given only in a name is not applied to a line headed by its entry.
UniProt Q9H098: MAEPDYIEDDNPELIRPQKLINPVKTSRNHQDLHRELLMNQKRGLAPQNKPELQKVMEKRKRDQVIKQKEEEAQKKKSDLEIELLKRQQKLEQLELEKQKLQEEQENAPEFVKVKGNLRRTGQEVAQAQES
UniProt Q93063: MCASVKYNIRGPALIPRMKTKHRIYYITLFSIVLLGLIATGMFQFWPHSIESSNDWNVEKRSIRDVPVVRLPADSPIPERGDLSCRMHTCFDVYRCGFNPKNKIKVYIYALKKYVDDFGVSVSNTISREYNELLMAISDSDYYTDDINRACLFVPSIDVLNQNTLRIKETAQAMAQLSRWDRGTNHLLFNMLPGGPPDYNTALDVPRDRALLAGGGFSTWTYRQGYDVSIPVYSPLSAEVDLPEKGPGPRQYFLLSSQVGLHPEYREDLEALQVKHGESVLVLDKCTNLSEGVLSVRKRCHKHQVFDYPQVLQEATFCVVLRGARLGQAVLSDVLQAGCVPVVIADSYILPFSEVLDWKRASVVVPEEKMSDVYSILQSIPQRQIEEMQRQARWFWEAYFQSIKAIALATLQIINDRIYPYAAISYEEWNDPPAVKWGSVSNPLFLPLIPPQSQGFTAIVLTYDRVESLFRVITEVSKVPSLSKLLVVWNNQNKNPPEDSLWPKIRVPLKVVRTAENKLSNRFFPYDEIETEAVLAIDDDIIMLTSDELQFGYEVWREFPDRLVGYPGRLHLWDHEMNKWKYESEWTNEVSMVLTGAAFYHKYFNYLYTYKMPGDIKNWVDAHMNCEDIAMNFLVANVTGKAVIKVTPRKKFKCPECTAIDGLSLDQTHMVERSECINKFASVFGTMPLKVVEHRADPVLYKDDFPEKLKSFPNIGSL
UniProt Q92520: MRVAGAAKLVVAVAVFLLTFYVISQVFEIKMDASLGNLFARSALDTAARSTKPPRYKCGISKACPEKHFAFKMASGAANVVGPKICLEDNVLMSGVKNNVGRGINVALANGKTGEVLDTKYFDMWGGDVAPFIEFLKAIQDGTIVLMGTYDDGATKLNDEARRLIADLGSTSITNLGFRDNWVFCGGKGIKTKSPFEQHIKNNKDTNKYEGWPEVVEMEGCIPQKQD
UniProt P98173: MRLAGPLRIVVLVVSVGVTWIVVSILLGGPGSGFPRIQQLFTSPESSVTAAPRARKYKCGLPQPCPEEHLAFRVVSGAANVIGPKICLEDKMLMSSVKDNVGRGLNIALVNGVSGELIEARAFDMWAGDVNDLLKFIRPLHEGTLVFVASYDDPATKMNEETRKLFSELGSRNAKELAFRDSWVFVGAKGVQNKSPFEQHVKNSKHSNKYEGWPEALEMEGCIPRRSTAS
UniProt O94905: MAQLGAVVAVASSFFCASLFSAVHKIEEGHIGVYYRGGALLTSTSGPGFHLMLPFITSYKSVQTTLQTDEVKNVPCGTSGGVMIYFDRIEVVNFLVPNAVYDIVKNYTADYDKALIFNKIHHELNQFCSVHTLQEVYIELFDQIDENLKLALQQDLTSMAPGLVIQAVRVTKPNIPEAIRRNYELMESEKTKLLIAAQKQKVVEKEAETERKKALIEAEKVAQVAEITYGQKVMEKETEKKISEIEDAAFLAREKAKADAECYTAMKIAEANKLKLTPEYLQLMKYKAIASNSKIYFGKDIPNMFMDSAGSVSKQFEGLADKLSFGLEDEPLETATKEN
UniProt Q9GZU8: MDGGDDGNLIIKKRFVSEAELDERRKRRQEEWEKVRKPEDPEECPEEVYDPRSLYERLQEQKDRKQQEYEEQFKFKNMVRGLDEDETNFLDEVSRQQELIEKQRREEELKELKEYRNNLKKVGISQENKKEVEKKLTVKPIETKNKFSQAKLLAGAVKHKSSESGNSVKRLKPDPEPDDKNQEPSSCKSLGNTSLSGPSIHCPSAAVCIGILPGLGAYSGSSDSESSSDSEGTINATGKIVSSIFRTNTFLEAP
UniProt Q96HE7: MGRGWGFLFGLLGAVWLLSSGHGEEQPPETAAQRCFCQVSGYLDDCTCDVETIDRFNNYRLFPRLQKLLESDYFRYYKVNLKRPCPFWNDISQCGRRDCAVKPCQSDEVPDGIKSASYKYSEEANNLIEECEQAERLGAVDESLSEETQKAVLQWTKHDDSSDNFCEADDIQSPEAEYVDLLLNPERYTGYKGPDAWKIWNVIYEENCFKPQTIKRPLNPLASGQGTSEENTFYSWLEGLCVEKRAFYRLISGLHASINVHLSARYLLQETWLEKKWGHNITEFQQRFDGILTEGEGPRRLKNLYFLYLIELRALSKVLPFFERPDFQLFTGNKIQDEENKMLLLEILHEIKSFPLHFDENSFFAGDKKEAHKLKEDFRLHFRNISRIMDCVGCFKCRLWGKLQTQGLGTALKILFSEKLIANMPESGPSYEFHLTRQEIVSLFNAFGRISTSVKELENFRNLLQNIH
UniProt Q13158: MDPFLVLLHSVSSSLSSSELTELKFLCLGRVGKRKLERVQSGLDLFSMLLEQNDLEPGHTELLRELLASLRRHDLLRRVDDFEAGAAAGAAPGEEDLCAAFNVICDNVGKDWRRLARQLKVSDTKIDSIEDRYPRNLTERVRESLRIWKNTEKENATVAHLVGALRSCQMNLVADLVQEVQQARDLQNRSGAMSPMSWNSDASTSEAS

Key:
Assay in all cases: log2 fold change, soluble protein after heating vs DMSO (PISA); higher = thermal stabilisation; K562 lysate, 10 uM; active = over 0.2 and 3.5 SD of the protein, either way, in both replicates (recomputed)
alvocidib = compound: CN1CC[C@H](c2c(O)cc(O)c3c(=O)cc(-c4ccccc4Cl)oc23)[C@H](O)C1 [alvocidib]
How it was run: (§1)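 The values are log-two fold changes in thermal stability compared with solvent controls and come from duplicates. They were obtained by TMTpro 16plex LC-MS/MS, with channel sums equalised, on the supernatant after 21,000xg for 90 min. That supernatant came from crude K562 extract at 1 mg/mL protein treated with 10 μM compound for 30 min, heated for 3 min across 48°C-58°C, pooled and brought to 0.5% NP-40 at 4°C.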

Tubastatin A = compound: CN1CCc2c(c3ccccc3n2Cc2ccc(C(=O)NO)cc2)C1 [Tubastatin A]
How it was run: as §1

[1] = compound: CNC(=O)C1=CC=CC=C1NC2=NC(=NC=C2Cl)NC3=C(C=C(C=C3)N4CCOCC4)OC
How it was run: as §1

defactinib = compound: CNC(=O)c1ccc(Nc2ncc(C(F)(F)F)c(NCc3nccnc3N(C)S(C)(=O)=O)n2)cc1 [defactinib]
How it was run: as §1

[2] = compound: CNc1nc(-c2ccc3c(N)n[nH]c3c2)cc(N2C[C@@H](C(=O)NC3CCCCC3)CC[C@H]2C)n1
How it was run: as §1

encorafenib = compound: COC(=O)N[C@@H](C)CNc1nccc(-c2cn(C(C)C)nc2-c2cc(Cl)cc(NS(C)(=O)=O)c2F)n1 [encorafenib]
How it was run: as §1

[3] = compound: COC(=O)[C@H](CCSC)NC(=O)C1=C(C=C(C=C1)NC[C@H](CS)N)C2=CC=CC=C2
How it was run: as §1

alisertib = compound: COc1cc(Nc2ncc3c(n2)-c2ccc(Cl)cc2C(c2c(F)cccc2OC)=NC3)ccc1C(=O)O [alisertib]
How it was run: as §1

[4] = compound: COc1cc2nc(-c3cc(F)ccc3O)nc(N[C@@H]3CNC[C@H]3C(C)(C)O)c2cc1OC
How it was run: as §1

gefitinib = compound: COc1cc2ncnc(Nc3ccc(F)c(Cl)c3)c2cc1OCCCN1CCOCC1 [gefitinib]
How it was run: as §1

lapatinib = compound: CS(=O)(=O)CCNCc1ccc(-c2ccc3ncnc(Nc4ccc(OCc5cccc(F)c5)c(Cl)c4)c3c2)o1 [lapatinib]
How it was run: as §1

pictilisib = compound: CS(=O)(=O)N1CCN(Cc2cc3nc(-c4cccc5[nH]ncc45)nc(N4CCOCC4)c3s2)CC1 [pictilisib]
How it was run: as §1

crizotinib = compound: C[C@@H](Oc1cc(-c2cnn(C3CCNCC3)c2)cnc1N)c1c(Cl)ccc(F)c1Cl [crizotinib]
How it was run: as §1

[5] = compound: C[C@H](C1=CC=C(C=C1)C(=O)NC2=C3C=CNC3=NC=C2)N
How it was run: as §1

duvelisib = compound: C[C@H](Nc1ncnc2nc[nH]c12)c1cc2cccc(Cl)c2c(=O)n1-c1ccccc1 [duvelisib]
How it was run: as §1

gandotinib = compound: Cc1cc(Nc2cc(CN3CCOCC3)c3nc(C)c(Cc4ccc(Cl)cc4F)n3n2)n[nH]1 [gandotinib]
How it was run: as §1

tozasertib = compound: Cc1cc(Nc2cc(N3CCN(C)CC3)nc(Sc3ccc(NC(=O)C4CC4)cc3)n2)n[nH]1 [tozasertib]
How it was run: as §1

doramapimod = compound: Cc1ccc(-n2nc(C(C)(C)C)cc2NC(=O)Nc2ccc(OCCN3CCOCC3)c3ccccc23)cc1 [doramapimod]
How it was run: as §1

bafetinib = compound: Cc1ccc(NC(=O)c2ccc(CN3CC[C@H](N(C)C)C3)c(C(F)(F)F)c2)cc1Nc1nccc(-c2cncnc2)n1 [bafetinib]
How it was run: as §1

[6] = compound: Cc1cccc(CC(=O)N2CCc3c2ccc(-c2cn(C)c4ncnc(N)c24)c3F)n1
How it was run: as §1

Measured: log2 fold change

FAM107B isoform 2 (UniProt Q9H098)
inactive: alvocidib 0 | Tubastatin A 0.055 | [1] -0.037 | defactinib 0.106 | [2] -0.033 | encorafenib 0.049 | [3] -0.034 | alisertib 0.029 | [4] 0.111 | gefitinib 0.028 | lapatinib -0.02 | pictilisib -0.001 | crizotinib -0.03 | [5] 0.084 | duvelisib 0.13 | gandotinib -0.017 | tozasertib -0.069 | doramapimod -0.102 | bafetinib 0.011 | [6] -0.081

EXT2 isoform 3 (UniProt Q93063)
inactive: alvocidib 0.038 | Tubastatin A 0.005 | [1] -0.17 | defactinib -0.076 | [2] -0.042 | encorafenib 0.046 | [3] -0.041 | alisertib -0.018 | [4] 0.052 | gefitinib 0.043 | lapatinib -0.048 | pictilisib -0.194 | crizotinib -0.046 | [5] 0.002 | duvelisib 0.057 | gandotinib -0.037 | tozasertib 0.037 | doramapimod -0.014 | bafetinib -0.025 | [6] 0.07

FAM3C (UniProt Q92520)
inactive: alvocidib -0.042 | Tubastatin A 0.049 | [1] -0.033 | defactinib -0.016 | [2] 0.043 | encorafenib 0.015 | [3] -0.014 | alisertib -0.008 | [4] -0.03 | gefitinib 0.038 | lapatinib 0.025 | pictilisib -0.01 | crizotinib -0.052 | [5] 0.012 | duvelisib -0.026 | gandotinib 0.025 | tozasertib -0.047 | doramapimod -0.066 | bafetinib 0.014 | [6] 0.017

Copied from above (two entries):
EXT2 isoform 3 (UniProt Q93063)
inactive: alvocidib 0.038 | Tubastatin A 0.005 | [1] -0.17 | defactinib -0.076 | [2] -0.042 | encorafenib 0.046 | [3] -0.041 | alisertib -0.018 | [4] 0.052 | gefitinib 0.043 | lapatinib -0.048 | pictilisib -0.194 | crizotinib -0.046 | [5] 0.002 | duvelisib 0.057 | gandotinib -0.037 | tozasertib 0.037 | doramapimod -0.014 | bafetinib -0.025 | [6] 0.07

FAM3C (UniProt Q92520)
inactive: alvocidib -0.042 | Tubastatin A 0.049 | [1] -0.033 | defactinib -0.016 | [2] 0.043 | encorafenib 0.015 | [3] -0.014 | alisertib -0.008 | [4] -0.03 | gefitinib 0.038 | lapatinib 0.025 | pictilisib -0.01 | crizotinib -0.052 | [5] 0.012 | duvelisib -0.026 | gandotinib 0.025 | tozasertib -0.047 | doramapimod -0.066 | bafetinib 0.014 | [6] 0.017

Following part:

FAM3A (UniProt P98173)
inactive: alvocidib 0.057 | Tubastatin A 0.113 | [1] -0.009 | defactinib 0.076 | [2] -0.018 | encorafenib 0.019 | [3] -0.051 | alisertib -0.032 | [4] 0.018 | gefitinib -0.009 | lapatinib -0.047 | pictilisib -0.023 | crizotinib 0.042 | [5] -0.028 | duvelisib -0.019 | gandotinib 0.011 | tozasertib 0.039 | doramapimod 0.039 | bafetinib 0.002 | [6] 0.063

ERLIN2 (UniProt O94905)
active: [5] 0.304
inactive: alvocidib 0.164 | Tubastatin A 0.016 | [1] 0.005 | defactinib 0.002 | [2] 0 | encorafenib 0.045 | [3] -0.164 | alisertib 0 | [4] -0.06 | gefitinib 0.005 | lapatinib -0.015 | pictilisib -0.091 | crizotinib -0.004 | duvelisib 0.003 | gandotinib -0.077 | tozasertib 0.02 | doramapimod 0.043 | bafetinib -0.015 | [6] -0.114

FAM192A (UniProt Q9GZU8)
inactive: alvocidib -0.032 | Tubastatin A -0.031 | [1] -0.008 | defactinib -0.035 | [2] 0.037 | encorafenib 0.046 | [3] -0.064 | alisertib -0.004 | [4] -0.004 | gefitinib 0.038 | lapatinib 0.011 | pictilisib 0.014 | crizotinib 0.041 | [5] 0.013 | duvelisib -0.012 | gandotinib 0.051 | tozasertib 0.069 | doramapimod 0.029 | bafetinib -0.034 | [6] 0.022

ERO1A (UniProt Q96HE7)
inactive: alvocidib 0.005 | Tubastatin A 0.006 | [1] 0.013 | defactinib 0.004 | [2] -0.023 | encorafenib -0.011 | [3] 0.017 | alisertib -0.002 | [4] -0.004 | gefitinib 0.011 | lapatinib 0.002 | pictilisib 0.013 | crizotinib -0.002 | [5] 0.043 | duvelisib -0.017 | gandotinib -0.054 | tozasertib 0.016 | doramapimod -0.005 | bafetinib 0.036 | [6] -0.05

FADD (UniProt Q13158)
inactive: alvocidib -0.006 | Tubastatin A -0.001 | [1] 0.036 | defactinib -0.126 | [2] -0.05 | encorafenib 0.024 | [3] -0.141 | alisertib 0.003 | [4] -0.02 | gefitinib 0.006 | lapatinib -0.004 | pictilisib 0 | crizotinib -0.031 | [5] -0.001 | duvelisib 0.021 | gandotinib -0.004 | tozasertib 0.049 | doramapimod -0.003 | bafetinib -0.109 | [6] 0.042
